Source: PubChem BioAssay AID296 (DTP/NCI, 2004)
The list is a part of this screen's results and no random one: it is rich in T/C values a quarter to a half above the control, in often repeated tests (any T/C) and in doses without a T/C. Other doses and runs of a compound stand elsewhere. T/C gives the treated animals as a percentage of the vehicle group. Schedules are NCI's codes, taken here to give the interval after Q, in days (D) or hours (H), and the number of doses after X. Some values lie below zero, which means that the treated tumours became smaller. Some doses were run more than once; their values stand side by side, smallest first. Some T/C values carry the count of animals alive at the toxicity check (mostly the fifth day); without a count, all were alive then. Counts like (3×) count equal records among those shown. Some doses have a count of surviving animals in place of a T/C: the source files T/C as zero there, which appears to mark a toxic dose or a test without result, not a measured value. Counts of survivors are from the toxicity check (mostly the fifth day) where no day follows; animals may have died later.

Test system: MX-1 breast xenograft, nude mice, tumor weight T/C
Experiment: NCI In Vivo Anticancer Drug Screen. Data for tumor model Human Mammary Carcinoma MX-1 Xenograft (intrarenal inoculation) in NU/NU Swiss (nude) mice
Conditions: T/C endpoint: mean tumor weight change, higher T/C = larger tumour; for T/C: evaluated on day 11
How it was run: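 Mice carrying the implanted tumor receive either test agent or vehicle. Tumor size or survival is then recorded for both groups. Results are stated as the treated-to-control quotient.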

[1] = dose: 150.0 mg/kg/injection, schedule: Q04DX003 (sc), vehicle: Klucel (hydroxypropylcellulose) (HPC)
[2] = dose: 300.0 mg/kg/injection, schedule: Q04DX003 (sc), vehicle: Klucel (hydroxypropylcellulose) (HPC)
[3] = dose: 800.0 mg/kg/injection, schedule: Q04DX003 (sc), vehicle: saline with Tween-80
[4] = dose: 1600.0 mg/kg/injection, schedule: Q04DX003 (sc), vehicle: saline with Tween-80
[5] = dose: 100.0 mg/kg/injection, schedule: Q01DX010 (sc), vehicle: saline
[6] = dose: 200.0 mg/kg/injection, schedule: Q01DX010 (sc), vehicle: saline
[7] = dose: 400.0 mg/kg/injection, schedule: Q01DX010 (sc), vehicle: saline
[8] = dose: 800.0 mg/kg/injection, schedule: Q01DX010 (sc), vehicle: saline
[9] = dose: 600.0 mg/kg/injection, schedule: Q04DX003 (sc), vehicle: Klucel (hydroxypropylcellulose) (HPC)
[10] = dose: 1200.0 mg/kg/injection, schedule: Q04DX003 (sc), vehicle: Klucel (hydroxypropylcellulose) (HPC)
[11] = dose: 200.0 mg/kg/injection, schedule: Q04DX003 (sc), vehicle: suspension in saline
[12] = dose: 300.0 mg/kg/injection, schedule: Q04DX003 (sc), vehicle: saline with Tween-80
[13] = dose: 2400.0 mg/kg/injection, schedule: Q04DX003 (sc), vehicle: Klucel (hydroxypropylcellulose) (HPC)

Compound: O=C1C2(Cl)C3(Cl)C4(Cl)C(Cl)(Cl)C5(Cl)[C@]3(Cl)C1(Cl)[C@]5(Cl)C24Cl (stereo partly drawn)
- survivor count [1]: 3 of 6 on day 11
- survivor count [2]: 0 of 6 on day 11

Compound: NC(=O)c1csc(C2OC(CO)C(O)C2O)n1 (stereo not drawn)
- survivor count (dose: 1600.0 mg/kg/injection, schedule: Q04DX003 (sc), vehicle: water): 3 of 6 on day 11

Compound: C/C=C/C=C1/OC(C)=C(C(C)=O)C1=O
- survivor count [3]: 0 of 6 on day 11
- survivor count [4]: 0 of 6 on day 11

Compound: OCC1OC(n2cnc3c(Cl)ncnc32)C(O)C1O (stereo not drawn)
- survivor count (dose: 2400.0 mg/kg/injection, schedule: Q04DX003 (sc), vehicle: saline): 2 of 6 on day 11

Compound: CNC=O
- T/C [5]: -38, -13, 1, 4 % of control
- T/C [6]: -72, -48, -11, -6 % of control
- T/C [7]: -74 and -53 % of control [2 of 3 alive on day 11]
- survivor count [7]: 1 of 6 on day 11
- T/C [8]: -87 and -18 % of control [5 of 6 alive on day 11]
- survivor count [8]: 1 of 6 on day 11 and 1 of 3 on day 11

Compound: CCCCCC[Se][Se]CCCCCC
- T/C (dose: 37.5 mg/kg/injection, schedule: Q04DX003 (sc), vehicle: Klucel (hydroxypropylcellulose) (HPC)): 128 % of control
- survivor count [9]: 2 of 6 on day 11
- survivor count [10]: 1 of 6 on day 11

Compound: CCOC(=O)/N=[N+](\[O-])c1ccccc1
- survivor count (dose: 75.0 mg/kg/injection, schedule: Q04DX003 (ip), vehicle: saline with Tween-80): 1 of 6 on day 11
- survivor count (dose: 150.0 mg/kg/injection, schedule: Q04DX003 (ip), vehicle: saline with Tween-80): 0 of 6 on day 11
- survivor count (dose: 300.0 mg/kg/injection, schedule: Q04DX003 (ip), vehicle: saline with Tween-80): 0 of 6 on day 11

Compound: CN(C)N=Nc1cn[nH]c1C(N)=O
- T/C [11]: 149 % of control
- survivor count (dose: 1600.0 mg/kg/injection, schedule: Q04DX003 (sc), vehicle: saline): 2 of 6 on day 11
- survivor count (dose: 1600.0 mg/kg/injection, schedule: Q04DX003 (sc), vehicle: suspension in saline): 1 of 6 on day 11

Compound: O=C[C@@H](CO)O[C@H](C=O)n1cnc2c(=O)[nH]cnc21
- T/C [12]: 125 % of control

Compound: CC1CCC(n2cnc3c(Cl)ncnc32)O1 (stereo not drawn)
- T/C [1]: 129 % of control
- T/C [2]: 54, 88 (2×), 94 [5 of 6 alive on day 11], 106, 108, 118, 123 % of control
- T/C [9]: 47 (2×), 48, 67, 70, 78, 82, 82 % of control [5 of 6 alive on day 11]
- T/C [10]: 94 % of control [5 of 6 alive on day 11]
- survivor count [10]: 0 of 6 on day 11, 1 of 6 on day 11, 2 of 6 on day 11, 3 of 6 on day 11
- survivor count [13]: 0 of 6 on day 11

Compound: N[C@H](C(=O)O)[C@@H]1CC(Cl)=NO1
- survivor count (dose: 16.0 mg/kg/injection, schedule: Q01DX010 (sc), vehicle: saline): 0 of 3 on day 11
- survivor count (dose: 32.0 mg/kg/injection, schedule: Q01DX010 (sc), vehicle: saline): 0 of 3 on day 11
- survivor count (dose: 32.0 mg/kg/injection, schedule: Q02DX005 (sc), vehicle: saline): 1 of 3 on day 11
- survivor count (dose: 64.0 mg/kg/injection, schedule: Q02DX005 (sc), vehicle: saline): 0 of 2 on day 11
- survivor count (dose: 128.0 mg/kg/injection, schedule: Q02DX005 (sc), vehicle: saline): 0 of 2 on day 11

Compound: CCC1=C[C@H]2CN(CCc3c([nH]c4ccccc34)[C@@](C(=O)OC)(c3cc4c(cc3OC)N(C)[C@H]3[C@@](O)(C(=O)OC)[C@H](OC(C)=O)[C@]5(CC)C=CCN6CC[C@]43[C@@H]65)C2)C1
- survivor count (dose: 24.0 mg/kg/injection, schedule: Q04DX003 (sc), vehicle: water): 3 of 6 on day 11

Compound: COc1cc([C@@H]2c3cc4c(c(O)c3C[C@H]3COC(=O)[C@@H]32)OCO4)cc(OC)c1O
- survivor count (dose: 12.5 mg/kg/injection, schedule: Q01DX010 (sc), vehicle: saline): 0 of 3 on day 11
- survivor count (dose: 25.0 mg/kg/injection, schedule: Q01DX010 (sc), vehicle: saline): 0 of 3 on day 11
- survivor count (dose: 50.0 mg/kg/injection, schedule: Q01DX010 (sc), vehicle: saline): 0 of 3 on day 11
- survivor count [5]: 0 of 3 on day 11
- survivor count [6]: 0 of 3 on day 11
- survivor count [7]: 0 of 3 on day 11

Compound: C[Si](C)(C)O/C=C1\CCCCC1=O
- survivor count [3]: 3 of 5 on day 11
- survivor count [4]: 1 of 6 on day 11

Compound: COc1cc2c(c(OC)c1OC)-c1ccc(OC)c(=O)cc1[C@@H](NC(C)=O)CC2
- survivor count (dose: 1.0 mg/kg/injection, schedule: Q01DX010 (sc), vehicle: saline): 1 of 3 on day 11
- survivor count (dose: 2.0 mg/kg/injection, schedule: Q01DX010 (sc), vehicle: saline): 0 of 3 on day 11

Compound: Clc1ccc(C2SC=Cc3ccccc32)cc1 (stereo not drawn)
- T/C [2]: 128 % of control [4 of 6 alive on day 11]
- T/C [13]: 136 % of control [5 of 6 alive on day 11]

Compound: ClCCCN1CCN(CCCCl)CC1
- survivor count (dose: 300.0 mg/kg/injection, schedule: Q04DX003 (sc), vehicle: saline + alcohol): 2 of 6 on day 11
- survivor count (dose: 600.0 mg/kg/injection, schedule: Q04DX003 (sc), vehicle: saline + alcohol): 0 of 6 on day 11

Compound: COC1=CC(=O)C(OC)=C(OC)C1=O
- T/C (dose: 75.0 mg/kg/injection, schedule: Q04DX003 (sc), vehicle: saline with Tween-80): 139 % of control
- survivor count [12]: 1 of 6 on day 11

Compound: CN(C)[C@@H]1C(=O)C(C(=O)NCN2CCN(C(=N)N=C(N)N)CC2)=C(O)[C@@]2(O)C(=O)C3=C(O)c4c(O)cccc4[C@@](C)(O)[C@H]3C[C@@H]12
- survivor count (dose: 10.0 mg/kg/injection, schedule: Q04DX003 (ip), vehicle: suspension in saline): 2 of 6 on day 11
- survivor count (dose: 20.0 mg/kg/injection, schedule: Q04DX003 (ip), vehicle: suspension in saline): 0 of 5 on day 11

Compound: O=C1NC(=O)C2C3C=CC(C12)C1C2C(=O)NC(=O)C2C31 (stereo not drawn)
- survivor count [4]: 1 of 6 on day 11
- survivor count (dose: 3200.0 mg/kg/injection, schedule: Q04DX003 (sc), vehicle: saline with Tween-80): 1 of 6 on day 11

Compound: O=CC(S)CO (stereo not drawn)
- T/C [11]: 131 % of control
- T/C (dose: 400.0 mg/kg/injection, schedule: Q04DX003 (sc), vehicle: suspension in saline): 131 % of control [5 of 6 alive on day 11]
- survivor count (dose: 800.0 mg/kg/injection, schedule: Q04DX003 (sc), vehicle: suspension in saline): 2 of 6 on day 11

Compound: CCCCCc1cc(O)c2c(c1)OC(C)(C)[C@@H]1CCC(C)=C[C@@H]21
- T/C (dose: 600.0 mg/kg/injection, schedule: Q04DX003 (sc), vehicle: other): 132 % of control [5 of 6 alive on day 11]
